B1: huF1.1.G2.2.4 (antibody, human IgG2, kappa, V domains shown)
VH: QVQLVQSGAEVKKPGASVKVSCKASGYTFTFYTMHWLRQAPGQGLEWIGYINPSSGYTNYNQKFTDRATLTADTSTSTAYMELSSLRSEDTAVYYCARSDGSSSKWYFDVWGQGTTVTVSS
VL: EIVLTQSPDFQSATPKEKVTITCRASSSVSYIHWYQQKPGSSPKAWISATSNLASGVPSRFSGSGSGTSYTLTINRVEAEDAATYYCQQWSSNPFTFGQGTKLEIKR
notes: also called huF1.1.2.4
B2: huF1.1.G2.4.4 (antibody, human IgG2, kappa, V domains shown)
VH: QVQLVQSGAEVKKPGASVKMSCKASGYTFTFYTMHWLKQAPGQGLEWIGYINPSSGYTNYNQKFTDRATLTADKSTSTAYMELSSLRSEDTAVYYCARSDGSSSKWYFDVWGQGTTVTVSS
VL: EIVLTQSPDFQSATPKEKVTITCRASSSVSYIHWYQQKPGSSPKAWISATSNLASGVPSRFSGSGSGTSYTLTINRVEAEDAATYYCQQWSSNPFTFGQGTKLEIKR
notes: also called huF1.1.4.4
B3: huG28.21.G2.1.4 (antibody, human IgG2, kappa, V domains shown)
VH: EVQLVQSGAEVKKPGATVKISCKASGFNIKDYYIHWVNQAPGKGLEWIGRIDPEDGDIAYAPKFQDRVTLTVDTSTDTAYLELSSLRSEDTAVYYCTTGNYYAMDFWGQGTTVTVSS
VL: QIVLTQSPATLSASPGERVTLSCTASSSVSSSYLHWYQQKPGSSPKLWIYSTSNLASGVPARFSGSGPGTSYTLTISSMEPEDAATYYCHQYHRSPPTFGQGTKLEIKR
notes: also called huG28.21.1.4
B4: huG28.21.G2.4.4 (antibody, human IgG2, kappa, V domains shown)
VH: EVQLQQSGAEVKKPGATVKLSCKASGFNIKDYYIHWVNQRPGQGLEWIGRIDPEDGDIAYAPKFQDRATLTVDTSTNTAYLELSSLRSEDTAVYYCTTGNYYAMDFWGQGTTVTVSS
VL: QIVLTQSPATLSASPGERVTLSCTASSSVSSSYLHWYQQKPGSSPKLWIYSTSNLASGVPARFSGSGPGTSYTLTISSMEPEDAATYYCHQYHRSPPTFGQGTKLEIKR
notes: also called huG28.21.4.4
B5: cAb 137QL.F1.1.G2 (antibody, human IgG2, V domains shown)
VH: QVQLQQSGAELARPGASVKMSCKASGYTFTFYTMHWLKQRPGQGLEWIGYINPSSGYTNYNQKFTDKATLTADKSSSTAYMQLSSLTSEDSAVYYCARSDGSSSKWYFDVWGTGTTVTVSS
VL: QIVLSQSPTILSASPGEKVTMTCRASSSVSYIHWYQQKPGSSPKAWISATSNLASGVPARFSGSGSGTSYSLTISRVEAEDAATYYCQQWSSNPFTFGSGTKLEIK
notes: Chimeric antibody; also called Chimeric F1.1; cAb F1.1.G2
B6: cAB 137QL.G28.21.G2 (antibody, human IgG2, V domains shown)
VH: EVQLQQSGAELVRPGASVKLSCTASGFNIKDYYIHWVNQRPEQGLEWIGRIDPEDGDIAYAPKFQDKATLTVDTSSNTAYLHIIGLTSEDTAVYYCTTGNYYAMDFWGQGTSVTVSS
VL: QIVLTQSPAIMSASLGERVTMTCTASSSVSSSYLHWYQQKPGSSPKLWIYSTSNLASGVPARFSGSGSGTSYSLTISSMEAEDAATYYCHQYHRSPPTFGSGTKLEIK
notes: Chimeric antibody; also called Chimeric G28.21; cAb G28.21.G2

The chains behind the UniProt entries cited, without tags or fusion partners. Residues count along the entry.
UniProt Q07011, residues 24-255: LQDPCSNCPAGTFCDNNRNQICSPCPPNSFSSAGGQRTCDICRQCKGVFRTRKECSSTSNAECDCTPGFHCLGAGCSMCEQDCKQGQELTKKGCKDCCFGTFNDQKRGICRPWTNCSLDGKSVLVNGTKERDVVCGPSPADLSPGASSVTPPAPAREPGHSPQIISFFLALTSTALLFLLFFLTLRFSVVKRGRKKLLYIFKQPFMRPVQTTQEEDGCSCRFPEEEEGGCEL

Results are given in words; binding and its absence hold for the method and conditions named. Some results given as binding are weak or reduced against the parent protein; the word gives no strength.

The assay concerns the target human 4-1BB on cells (human, UniProt Q07011 24-255). As to the kind of experiment: flow cytometry on 4-1BB expressing cells. On the technique in general: In flow cytometry, cells or beads pass a laser one at a time.
In the case of B1, the binding entry was “binds”.

As to B2, the binding entry is given as “binds”.

On to B3, for which the binding result is “binds”.

B4: the binding result was “binds”.

With B5, the binding entry is reported as “binds”.

On to B6, for which the binding result is reported as “binds”.
